Reference: PubChem BioAssay AID1487 (National Center for Advancing Translational Sciences (NCATS), 2009)
This is one part of the list. Shown are side measurements of this screen, not its main read-out; they come without a call. Most of these compounds were active or inconclusive in the main read-out, so they are no random draw. Words in brackets tell the shape of the fitted curve; partial curves, single points and poor fits give uncertain potencies.

Test: qHTS Assay for Modulators of Lamin A Splicing
Details: HeLa LMNA splicing GFP/RFP minigene ratio, 48 h
Method in brief: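 Read-out is the ratio of GFP to DsRed2 object intensity, acquired by 488 nm laser-scanning cytometry on HeLa lamin A-EGFP minigene reporter cells. Compound incubation 48 hrs at 37 °C in Opti-MEM with 2% FBS; DMSO 0.5% final.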

[1] = measured here: RFP viability control channel
[2] = measured here: GFP splicing reporter channel

SMILES | AC50 [1] | AC50 [2]
COc1cc(C(=O)NCc2ccc3c(c2)CCN3C(=O)c2ccncc2)cc(OC)c1OC | 0.0891 µM [rising, full curve, poor fit] | 
COc1ccc(C(=O)/C=C/c2ccc(O)cc2)c(O)c1CC=C(C)C | 14.1 µM [rising, single point] | 10 µM [rising, partial curve]
Cc1cc(Cl)ccc1OCCCC(=O)N1CCCc2ccccc21 | 31.6 µM [rising, single point] | 35.5 µM [rising, single point]
O=C(Cc1ccc(Cl)c(Cl)c1)Nc1cccc2ncccc12 |  | 4.47 µM [falling, partial curve, poor fit]
CCOC(=O)c1ccc(NC(=S)N(Cc2cccnc2)Cc2ccco2)cc1 |  | 10 µM [falling, partial curve, poor fit]
CCOc1ccccc1NC(=O)NC(=O)N(C)S(C)(=O)=O | 39.8 µM [falling, partial curve, poor fit] | 
O=C(Nc1cccc(S(=O)(=O)N2CCCCC2)c1)c1ccc([N+](=O)[O-])o1 | 2.24 µM [falling, partial curve] | 0.501 µM [falling, full curve, poor fit]
CCOc1ccc(NS(=O)(=O)c2ccc(NC(=O)[C@@H]3CCCC[C@@H]3C(=O)O)cc2)cc1 | 35.5 µM [rising, single point] | 12.6 µM [rising, partial curve]
C[C@H]1CC[C@H]2C(=O)N3[C@H](c4ccccc4Br)[C@@H](C)CC[C@H]3C(=O)N2[C@@H]1c1ccccc1Br | 35.5 µM [rising, single point] | 35.5 µM [rising, single point]
COC(=O)c1c(NC(NC(=O)C(C)C)C(Cl)(Cl)Cl)sc2c1CCC2 (stereo unspecified) | 15.8 µM [rising, single point] | 11.2 µM [rising, single point]
Cc1ccc(N)cc1-n1c(C)ccc1C | 8.91 µM [falling, partial curve, poor fit] | 
Cc1cc(NC(=O)CSc2nnc(C)c(=O)n2N)no1 | 0.1 µM [falling, full curve, poor fit] | 
COc1ccc(NC(=O)Cn2nnc(C(=O)NCCc3ccc(OC)c(OC)c3)c2N)cc1 | 3.16 µM [falling, full curve] | 
CCCCN(C)S(=O)(=O)c1ccc(C(=O)Nc2nnc(CSC)o2)cc1 | 35.5 µM [falling, single point] | 8.91 µM [falling, partial curve]
Cn1c(=O)n(C)c2cc(/C=N/NC(=S)NCc3ccccc3)ccc21 | 3.55 µM [falling, single point] | 3.16 µM [falling, partial curve]
S=C(Nc1ccc(Oc2ccccc2)cc1)NC1CCCCC1 | 25.1 µM [rising, partial curve, poor fit] | 
COc1cccc(-c2nc(-c3ccc(NC(=O)c4cccs4)cc3)no2)c1 | 14.1 µM [falling, single point] | 
CCOC(=O)CSc1nnc(-c2cc(OC)c(OC)c(OC)c2)o1 |  | 0.1 µM [falling, full curve]
CNC(=O)c1c(NC(=O)c2cc(=O)c3ccccc3o2)sc2c1CCC2 |  | 0.794 µM [rising, single point]
Clc1ccc(-c2nnn(Cc3nc4ccccc4s3)n2)cc1 | 12.6 µM [rising, partial curve] | 
O=S(=O)(NCc1ccncc1)c1ccc(S(=O)(=O)NCC2CCCO2)cc1 (stereo unspecified) | 5.62 µM [rising, full curve] | 3.55 µM [rising, partial curve]
Cc1cc(=O)[nH]c(NN=C(CC(C)C)CC(C)C)n1 | 0.0891 µM [falling, full curve, poor fit] | 
O=C(Nc1nc2c(s1)CCc1ccccc1-2)c1cccs1 | 35.5 µM [rising, single point] | 22.4 µM [rising, partial curve]
O=C(CCl)N1CCN2C(=O)c3ccccc3C12c1ccc(Cl)cc1 (stereo unspecified) | 10 µM [rising, partial curve, poor fit] | 
CCC(=O)OC1CC(C)N(C(=O)c2ccccc2)c2ccc(C)cc21 (stereo unspecified) | 35.5 µM [rising, single point] | 
CCOC(=O)c1sc(-c2ccc(OC)cc2)cc1NC(C)=O | 15.8 µM [rising, single point] | 12.6 µM [rising, single point]
CC1CC2=C(NC(=S)NC2c2cccc(F)c2)/C(=C/c2cccc(F)c2)C1 (stereo unspecified) | 22.4 µM [rising, partial curve] | 11.2 µM [rising, partial curve, poor fit]

SMILES | AC50 [1] | AC50 [2]
COc1ccc(Nc2nc(N3CCCCC3)nc3ccccc23)c(OC)c1 | 31.6 µM [rising, single point] | 
CCCc1nc2c(sc3nc4c(cc32)COC(C)(C)C4)c(=O)n1CCN(CC)CC | 5.62 µM [falling, single point] | 5.62 µM [falling, single point]
CCCCNS(=O)(=O)c1ccc2nc(SCC(=O)Nc3cc(C)cc(C)c3)[nH]c2c1 | 11.2 µM [rising, partial curve, poor fit] | 8.91 µM [rising, partial curve, poor fit]
Cc1ccc(C)c(S(=O)(=O)NCC(c2ccc(N(C)C)cc2)N2CCOCC2)c1 (stereo unspecified) | 12.6 µM [rising, single point] | 
O=C(C1CCCCC1)N(Cc1ccccc1)c1ccccn1 | 35.5 µM [rising, single point] | 31.6 µM [rising, single point]
O=C(NCc1ccccc1Cl)C1CCCN(c2nc3ccccc3n3cccc23)C1 (stereo unspecified) | 17.8 µM [falling, single point] | 20 µM [falling, single point]
CCOC(=O)c1c(C=O)c(C)n(Cc2ccc(C)cc2)c1C | 7.94 µM [rising, partial curve, poor fit] | 
CN1/C(=C\C=N\NC(=O)c2ccccc2Br)C(C)(C)c2ccccc21 | 22.4 µM [rising, single point] | 
N#CCCn1c(=O)c(-c2cc(F)cc(F)c2)nc2cnc(Nc3ccccc3)nc21 | 7.08 µM [falling, full curve, poor fit] | 
COc1ccc(NC(=O)Nc2cn(CC(C)C)c(=O)c3ccccc23)c(OC)c1 | 7.94 µM [rising, partial curve, poor fit] | 
COC(=O)CCN(C(=O)c1cc([N+](=O)[O-])cc([N+](=O)[O-])c1)c1ccccn1 |  | 5.62 µM [falling, partial curve, poor fit]
Cc1cc(F)ccc1S(=O)(=O)Nc1ccccc1C(=O)Nc1ccccc1-c1nc2ccccc2[nH]1 | 20 µM [rising, single point] | 
O=C(NCCc1ccc(F)cc1)C(=O)NCC(c1cccs1)S(=O)(=O)c1cccs1 (stereo unspecified) | 0.282 µM [falling, full curve, poor fit] | 22.4 µM [falling, partial curve, poor fit]
CCc1ccc(-c2csc(NC(=O)C3CC(=O)N(c4ccc5c(c4)OCCO5)C3)n2)cc1 (stereo unspecified) | 22.4 µM [rising, single point] | 
O=S(=O)(c1ccc(Cl)cc1)n1c(Cc2ccccc2)nc2ccccc21 | 20 µM [rising, single point] | 
O=C(NC1CC1)C1CCC(=O)N1C1CCCC1 (stereo unspecified) |  | 5.01 µM [rising, single point]
CCCCCCNCc1ccc(Br)cc1 | 35.5 µM [rising, single point] | 
COC(=O)c1ccc(NS(=O)(=O)c2ccc3[nH]c4c(c3c2)CCCCC4)cc1 | 12.6 µM [falling, partial curve] | 20 µM [falling, partial curve]
COC(=O)c1ccc(CSc2nnc(C)s2)cc1 | 0.891 µM [rising, full curve, poor fit] | 0.891 µM [rising, full curve, poor fit]
CCCCNC(=O)c1sc2nc(C)cc(COC)c2c1-n1cccc1 | 12.6 µM [rising, partial curve, poor fit] | 
Cn1cc[nH]c1=S | 0.002 µM [falling, full curve, poor fit] | 0.002 µM [falling, full curve, poor fit]
COc1ccc(-c2nc3ccccc3c(=O)n2CCOc2cc(C)ccc2C)cc1 | 1.58 µM [rising, single point] | 
Cc1ccc(CNC(=O)c2ccc3c(c2)NC(=O)C(CS(=O)(=O)Cc2cccc(F)c2)N3)cc1 (stereo unspecified) | 0.178 µM [falling, partial curve, poor fit] | 0.316 µM [falling, full curve, poor fit]
O=C(Nc1nc2c(F)cccc2s1)c1ccc2c(c1)OCCO2 | 31.6 µM [rising, single point] | 
O=S(=O)(c1ccc(Cl)cc1)N1CCCC(C(F)(F)F)C1 (stereo unspecified) |  | 0.282 µM [rising, full curve, poor fit]
COc1cc(COCC(O)CN2CCN(CCN3C(=O)c4cccc5cccc(c45)C3=O)CC2)cc(OC)c1OC (stereo unspecified) | 17.8 µM [rising, single point] | 14.1 µM [rising, single point]
O=C(CSCc1ccccc1Cl)N/N=C/c1ccco1 |  | 5.62 µM [rising, single point]

By substructure, the entries above with a nitro group on carbon.
SMILES | AC50 [1] | AC50 [2]
O=C(Nc1cccc(S(=O)(=O)N2CCCCC2)c1)c1ccc([N+](=O)[O-])o1 | 2.24 µM [falling, partial curve] | 0.501 µM [falling, full curve, poor fit]
COC(=O)CCN(C(=O)c1cc([N+](=O)[O-])cc([N+](=O)[O-])c1)c1ccccn1 |  | 5.62 µM [falling, partial curve, poor fit]
